# Screening data, single-dose tests

The values are deposited in ChEMBL (CHEMBL3988442, “University of Dundee, Small-Polar-MMV Screening Library” (2021)).

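Assay of Toxoplasma gondii numbers, read through their beta-galactosidase reporter with a colour substrate. Concentration: 50 µM. The record gives no direction; the compounds picked for IC50 retests had high values, so higher reads as fewer parasites. Size under these conditions: about 18,000 compounds, about 170 of them at 50% or above in at least one test.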

Values are the deposited “Percent Effect”, in %. The record does not define 0% and 100%; most values in the screen are far below 50% and negative numbers occur (in some assays of this library far below -100). Compounds were drawn at random from those tested, without regard to their results.

- Cc1ccnc2c1CCN2 | -5.505%
- CS(=O)(=O)c1cccc(Cl)c1C(N)=O | -0.7033%
- CC(N)Cc1ccncc1 (stereo not shown) | 2.031%
- Cc1cccc(NC(=O)C2CCNCC2)n1 | -4.21%
- NC(=O)CN1CCCC(Nc2ccc(F)c(F)c2)C1 (stereo not shown) | -3.414%
- N#CCCNC(=O)CN(CC1CCOC1)C1CC1 (stereo not shown) | 4.886%
- CC(N)c1nncn1C (stereo not shown) | 3.601%
- Cn1cncc1CCNC(=O)c1ccncc1Cl | -1.839%
- CSCCOC(=O)c1ccc2nncn2c1 | 6.177%
- NC1CNCCNC1 | 25.06%
- CC(C)CC(=O)NCC(C)NC(=O)CC(C)C (stereo not shown) | 2.434%
- CC(N)c1ccc2c(c1)OCCCO2 (stereo not shown) | -8.609%
- O=c1[nH]nc(CNc2ccc(Br)cc2)[nH]1 | 3.058%
- CCn1c(CN2CCC(F)CC2)nnc1[C@H]1C[C@@H](N)C1 | -1.45%
- NC1CCCc2c(F)cccc21 (stereo not shown) | 6.357%
- CCCS(=O)(=O)N1CCc2n[nH]c(=O)n2CC1 | -5.843%
- COCCN1CCCN(C(=O)c2cc(C)no2)CC1 | -5.265%
- NCc1cnc2ccsc2c1 | -63.54%
- CNc1snc(C)c1C(=O)NCc1cccnc1 | -1.195%
- NC(=O)c1ccc2c(n1)NCCC2 | -12.61%
- CCOCc1nnc(NCc2cccc(OC)n2)o1 | 9.124%
- CCc1noc(CN2CCC(C)CC2)n1 | -5.683%
- OCCc1ccoc1 | -3.021%
- FC(F)(F)Cn1cnc(C2COCCN2)n1 (stereo not shown) | -10.67%
- CCOCCOc1cccc(NC(=O)NCCN)c1 | -8.484%
- CC(C)(C)OC(=O)N1CC(N)CC(F)(F)C1 (stereo not shown) | -12.15%
- CCC(CN)NC(=O)OC(C)(C)C (stereo not shown) | -7.746%
- CC(C)(C)C(=O)Nc1nccs1 | 1.483%
- CN(Cc1c(F)cccc1Cl)S(=O)(=O)N1CCOCC1 | -5.352%
- Cc1cccc(NCC(=O)NC2CCCCC2)n1 | -0.7525%
- CC(C)(C(=O)OCC(N)=O)c1ccccc1 | 2.133%
- CCNC(=O)NCCOc1ccc(S(C)(=O)=O)cc1 | -6.543%
- COCC(C)(NC(=O)C1CCOCC1)c1ccccc1 (stereo not shown) | -19.26%
- CCS(=O)(=O)CCNC(=O)c1cn2cccnc2n1 | 5.223%
- Cc1nc2ccccc2c(C)c1C(N)=O | -3.335%
- CNc1nc(C(=O)N2CC(C)(C)[C@@](C)(O)C2)cs1 | -27.15%

3 of the entries, repeated:

SMILES	Percent Effect
Cc1cccc(NCC(=O)NC2CCCCC2)n1	-0.7525
OCCc1ccoc1	-3.021
CC(N)c1nncn1C (stereo not shown)	3.601